Article doi:10.1101/871640
No constants are given. Whether binding was seen depends on the method and setting. In cells and extracts the contact can be indirect. Some results given as binding are weak or reduced against the parent protein; the word gives no strength. Sequences can lack the tags named with a protein.

Amino acid sequences for entries named in this document (tags omitted).
UniProt P31245: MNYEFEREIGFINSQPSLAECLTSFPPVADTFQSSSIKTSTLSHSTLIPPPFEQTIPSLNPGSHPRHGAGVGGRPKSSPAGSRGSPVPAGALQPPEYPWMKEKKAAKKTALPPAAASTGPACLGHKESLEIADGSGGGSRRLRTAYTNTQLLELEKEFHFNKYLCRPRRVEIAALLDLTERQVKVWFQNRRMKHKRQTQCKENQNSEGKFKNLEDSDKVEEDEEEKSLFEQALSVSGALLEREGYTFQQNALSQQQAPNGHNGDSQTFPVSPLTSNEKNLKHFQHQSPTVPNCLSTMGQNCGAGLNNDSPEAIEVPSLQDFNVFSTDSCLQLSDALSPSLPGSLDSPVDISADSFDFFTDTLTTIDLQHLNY
UniProt O43365: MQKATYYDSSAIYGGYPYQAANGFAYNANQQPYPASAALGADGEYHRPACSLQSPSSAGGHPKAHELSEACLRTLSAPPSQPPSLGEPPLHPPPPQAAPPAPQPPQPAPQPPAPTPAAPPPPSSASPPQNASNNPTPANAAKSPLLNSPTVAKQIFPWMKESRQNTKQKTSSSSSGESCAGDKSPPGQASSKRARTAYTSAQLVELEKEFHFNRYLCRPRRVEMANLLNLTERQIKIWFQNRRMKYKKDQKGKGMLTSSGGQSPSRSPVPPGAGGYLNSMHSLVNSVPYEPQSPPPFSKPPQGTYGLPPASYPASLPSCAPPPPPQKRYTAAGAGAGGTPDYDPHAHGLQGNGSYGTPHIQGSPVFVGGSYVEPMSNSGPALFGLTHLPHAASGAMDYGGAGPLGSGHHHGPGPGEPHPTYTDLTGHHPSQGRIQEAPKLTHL

Target: T1, GST-tagged MEIS1 (UniProt Q60954)
T1 sequence: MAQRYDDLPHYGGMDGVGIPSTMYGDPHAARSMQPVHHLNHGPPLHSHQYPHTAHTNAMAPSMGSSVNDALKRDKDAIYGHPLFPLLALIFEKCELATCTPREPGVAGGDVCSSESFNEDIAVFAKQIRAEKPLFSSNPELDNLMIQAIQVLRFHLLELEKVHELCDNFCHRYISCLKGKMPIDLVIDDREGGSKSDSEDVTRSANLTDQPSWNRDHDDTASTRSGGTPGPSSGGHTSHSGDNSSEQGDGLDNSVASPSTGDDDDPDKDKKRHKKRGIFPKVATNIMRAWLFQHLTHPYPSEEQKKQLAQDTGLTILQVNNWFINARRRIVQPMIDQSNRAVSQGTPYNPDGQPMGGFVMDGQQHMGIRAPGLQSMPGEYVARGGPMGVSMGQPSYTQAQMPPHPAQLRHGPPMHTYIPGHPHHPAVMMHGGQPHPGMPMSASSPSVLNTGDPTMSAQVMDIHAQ
Assay: co-IP

| binding | Substance |
| --- | --- |
| binds | FLAG-tagged HOXA2 (from UniProt P31245 1-372) |
| binds | FLAG-tagged HOXA3 (from UniProt O43365 1-443) |
